Data taken from PubChem BioAssay AID1508623, deposited by NCATS (2021).

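Change in HTT-promoter-driven luminescence in engineered HEK293 reporter cells after a 24 h treatment, measured at one concentration. Percent change in reporter signal versus vehicle (0%) down to no light (-100%); more negative values mean stronger inhibition of promoter activity.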

Values are in %. Common to all entries: at 57.5 µM (top of the series). Only part of the assay is listed here, not a random draw.

SMILES | activity change (%)
Cc1nn(-c2ccc(N3CCCC3)nn2)c(C)c1CCC(=O)NCc1ccccc1 | -13.44
Cc1ccc(NC(=O)CSc2nnc(COc3ccc(Cl)cc3)o2)cc1 | -11.68
CCOc1ccc(NC(=O)CC2C(=O)N(c3cccc(C)c3)C(=O)N2Cc2cccs2)cc1 (centres undefined) | -26.45
Cc1ccccc1NC(=O)c1c(C)oc2ccc(O)c(CN3CCCC3)c12 | -9.567
CCOC(=O)c1ccc(N2CCN(c3ccc(F)cc3)CC2)c(NC(=O)Nc2cccc(OC)c2)c1 | -50.26
COc1ccc(C2C(=O)N(C3CCC(C)CC3)CC(=O)N2C2CCCCC2)cc1OC (centres undefined) | -20.21
CCc1ccc(NC(=O)CC2C(=O)N(c3cccc(C)c3)C(=O)N2Cc2cccc(OC)c2)cc1 (centres undefined) | -47.69
COc1ccccc1N1CCN(C(=O)c2cc3c(=O)n(Cc4ccco4)ccc3nc2C)CC1 | -14.82
CN(C(=O)CSc1nnc(COc2ccccc2)o1)c1ccccc1 | -21.95
Cc1ccccc1OCCCn1c(-c2ccc(Cl)cc2)nc2ccccc2c1=O | -20.92
COc1ccc(S(=O)(=O)N(CCc2ccccc2)CC(=O)Nc2ccc(C)c(C)c2)cc1OC | -46.78
COc1ccc(OC)c(S(=O)(=O)Nc2cccc(-c3ccc(N4CCCCC4)nn3)c2)c1 | -3.578
CCCCN(CC)c1ncnc2c1sc1nc(N3CCOCC3)c3c(c12)CCCC3 | -1.282
COc1ccc(N2CCN(S(=O)(=O)c3ccc4oc(=O)c5ncn(C)c5c4c3)CC2)cc1 | -6.94
COc1cc2oc(=O)c(CC(=O)N3CCCCC3)c(C)c2cc1Cl | -5.853
COc1ccc(-c2nc(SCCOc3ccccc3Cl)n3[nH]c(=O)cc3n2)cc1 | 3.623
CCOc1ccc(NC(=O)CC2C(=O)N(c3ccc(Cl)cc3)C(=O)N2Cc2cccs2)cc1 (centres undefined) | -28.79
O=C(NCCc1ccc(Cl)cc1)c1cnc2sc(N3CCCCC3)nn2c1=O | -14.2
CCOc1ccc(NC(=O)N2CCN3CCCCC3C2)cc1 (centres undefined) | -3.655
COc1ccc(S(=O)(=O)N(CC(=O)Nc2cc(Cl)ccc2C)Cc2ccccc2)cc1OC | -54.67
Cn1c(=O)c2c(-c3ccccc3)n3c(c2n(C)c1=O)C(c1ccccc1[N+](=O)[O-])Nc1ccccc1-3 (centres undefined) | -4.923
Cc1c(NC(=O)c2cc(-c3cccc(O)c3)on2)c(=O)n(-c2ccccc2)n1C | -23.99
COc1ccccc1CNc1nc2ccc(C)cc2n2nnnc12 | -24.48
COc1cc2oc(=O)c(CC(=O)N3CCCCC3)c(C)c2cc1OC | -19.99
CC(CNC(=O)c1cc2ccccn2n1)c1ccccc1 (centres undefined) | 36.65
Cc1cc(C)cc(NC(=O)CCc2c(C)nn(-c3ccc(N4CCCC4)nn3)c2C)c1 | 1.715
O=S(=O)(Nc1cccc(-c2ccc(N3CCCCC3)nn2)c1)c1ccc(Cl)s1 | 37.42
Cc1nc2scc(C)n2c(=O)c1S(=O)(=O)Nc1ccc(N2CCN(C(=O)C(C)C)CC2)cc1 | -58.45
Cc1ccc(S(=O)(=O)Nc2cc3c(cc2NCc2ccccc2)n(C)c(=O)n3C)c(C)c1 | 76.34
Cc1ccc(-c2cc(C(=O)N(Cc3ccccc3)Cc3ccco3)no2)cc1F | -10.01
Cc1ccc(N2CCN(S(=O)(=O)c3ccc4oc(=O)c5ncn(C)c5c4c3)CC2)c(C)c1 | -7.398
Cc1ccc(C)c(N2CCN(C3=C(c4ccccc4)C(=O)c4ccccc43)CC2)c1 | -7.395
Cc1ccc(NC(=O)c2c(C)oc3ccc(O)c(CN4CCCCC4)c23)cc1 | -22.73
O=C(NCCSCc1ccccc1Cl)C1CCN(S(=O)(=O)Cc2ccccc2)CC1 | -27.43
CC1Cc2cc(S(=O)(=O)NCCc3ccc(Cl)cc3)ccc2N1C(=O)C1CCC1 (centres undefined) | -44.03
CNc1nc2c(c(=O)n(C)c(=O)n2C)n1CC(O)COc1ccc(OC)cc1 (centres undefined) | -80.76
Cc1ccc(NS(=O)(=O)c2ccc(-c3cc(C)no3)cc2)c(C)c1 | -51.14
CCOc1ccc(NC(=O)CCc2c(C)nn(-c3ccc(N4CCCC4)nn3)c2C)cc1 | -2.795
CCOc1ccc(-n2nc3ccc(NC(=O)COc4ccc(OC)cc4)cc3n2)cc1 | -64.19
Cc1cccc(Nc2nnc(-n3nc(C)cc3C)c3ccccc23)c1 | 39.31
Cc1ccc2nc(Nc3cccc(C(F)(F)F)c3)c3nnnn3c2c1 | -11.86
COc1cccc(C(=O)N2CCC(N3CCN(Cc4ccc(F)cc4)C(=O)C3=O)CC2)c1 | -13.81
CCCc1cc(=O)oc2cc(C)c3c(-c4ccccc4)c(C)oc3c12 | -12.29
Cc1ccc(C)c(NS(=O)(=O)c2ccc3oc(=O)c4ncn(C)c4c3c2)c1 | -16.37
COc1ccc(N2CCN(C(=O)C3CCN(S(=O)(=O)Cc4ccccc4)CC3)CC2)cc1 | -20.8
Cc1cc(-c2ccc(S(=O)(=O)Nc3cccc(Cl)c3C)cc2)on1 | -58.9
COC(=O)COc1ccc(C2C(C(=O)OC)=C(C)NC3=C2C(=O)c2ccccc23)cc1OC (centres undefined) | -16.68
O=C(NCc1ccc(Cl)cc1)c1cnc2sc(N3CCOCC3)nn2c1=O | -17.09
Cc1ccc(C2C(=O)N(C3CCCCCC3)CC(=O)N2C(C)C)cc1 (centres undefined) | -27.26
CC(C)CCSc1nc2c(c(=O)n(C)c(=O)n2C)n1Cc1ccccc1Cl | 12.81
COc1ccc(S(=O)(=O)Nc2cccc(-c3ccc(N4CCCCCC4)nn3)c2)cc1 | 12.22
O=C(c1cc(-c2ccc(O)cc2)on1)N1CCN(c2ccccc2)CC1 | -21.96
Cc1ccc(O)c(NC(=O)c2cc(-c3ccc4c(c3)OCO4)on2)c1 | 47.4
COc1ccc(OC)c(-c2cc(C(=O)Nc3cccc(Cl)c3C)no2)c1 | -22.47
Cc1ccc(Cn2c(CCCNC(=O)c3ccco3)nc3ccccc32)cc1 | -34.85
CCOC(=O)c1cc(C)n(CC2CCC(C(=O)Nc3cccc(C)c3)CC2)c1C (centres undefined) | -32.42
COc1ccc2c(C)c(CC(=O)NCCc3ccc(Cl)cc3)c(=O)oc2c1C | -9.712
COc1ccc(-c2cc(C(=O)Nc3sc4c(c3C#N)CCCC4)no2)cc1OC | -13.01
COc1cc2c(cc1OC)C(c1ccc(F)cc1)N(c1cccc(C#N)c1)C(=O)C2 (centres undefined) | -24.38
COc1cc(C)cc2oc(=O)c(CC(=O)NCc3cccc(Cl)c3)c(C)c12 | -37.27
Cc1ccc2nc(N3CCN(c4ccccc4F)CC3)c3nnnn3c2c1 | -20.3
COc1cc(Cl)c(C)cc1NC(=O)CC(c1ccc(F)cc1)N1Cc2ccccc2C1=O (centres undefined) | -19.32
COc1ccc(-c2c3c(=O)n(C)c(=O)n(C)c3c3n2-c2ccccc2NC3c2ccc(O)cc2O)cc1 (centres undefined) | -15.85
Cc1cc(=O)n2c(C(=O)Nc3ccc(F)c(Cl)c3)c(C(=O)Nc3cccc(C)c3C)sc2n1 | -13.97
Cc1nn(-c2ccc(N3CCCCC3)nn2)c(C)c1CCC(=O)NCc1ccccc1F | -36.33
COc1cccc(CNS(=O)(=O)c2c(C)nc3scc(C)n3c2=O)c1 | -10.29
Cc1oc2ccc(O)c(CN3CCN(Cc4ccccc4)CC3)c2c1C(=O)Nc1ccccc1 | -19.44
COc1cc(NC(=O)c2cc3ccccn3n2)cc(OC)c1OC | 8.908
COc1ccc(C)cc1NC(=O)c1cc2ccccn2n1 | 24.62
CCc1nn(CC(=O)NCCCc2ccccc2)c(=O)c2cc3c(OC)cccc3n12 | -9.233
Cn1c(=O)c2c(-c3ccccc3)n3c(c2n(C)c1=O)C(c1cccc([N+](=O)[O-])c1)Nc1ccccc1-3 (centres undefined) | -16.74
COc1ccccc1CNC(=O)CCc1c(C)c2cc3c(C)coc3cc2oc1=O | -12.11
c1ccc(-c2nnc(CN3CCN(c4ccccc4)CC3)o2)cc1 | -19.67
CCCCOc1ccc(CNC(=O)c2cnc3sc(N4CCC(C)CC4)nn3c2=O)cc1 | -7.134
CCc1nn(CC(=O)NCc2cccc(OC)c2)c(=O)c2cc3cc(F)ccc3n12 | -9.968
COc1ccc(S(=O)(=O)Nc2cccc(-c3ccc(N4CCCCCC4)nn3)c2)cc1OC | 10.81
CC(=O)c1ccc(NC(=O)/C=C/c2ccc(C)o2)cc1 | 45
COc1ccc(NC(=O)c2c(C)oc3ccc(O)c(CN4CCCC4)c23)cc1Cl | -15.71
CCc1nn(CC(=O)NCCc2ccc(Cl)cc2)c(=O)c2cc3c(OC)cccc3n12 | -0.7617
CCc1cccc(C)c1NC(=O)c1cccc(C(=O)Nc2c(C)cccc2CC)c1 | -41.62
CCCc1cc(C(=O)Nc2c(C)nn(Cc3c(Cl)cccc3Cl)c2C)no1 | -39.85
C=C(C)CSc1nc2sc3c(c2c(=O)n1CCCC)CCCC3 | -6.076
COc1cc(C2C(=O)N(C3CCCCCC3)CC(=O)N2Cc2ccccc2)ccc1OC(C)C (centres undefined) | -31.38
CCOc1cc(-c2nc3c(c(CC)nn3-c3ccccc3)c3cc(OC)c(OC)cc23)ccc1O | -9.662
COc1ccc(C2C(=O)N(C3CCC(C)CC3)CC(=O)N2Cc2ccccc2Cl)cc1OC (centres undefined) | -21.22
Cc1ccc(CN2C(=O)CN(C3CCCCCC3)C(=O)C2c2ccc(F)cc2)cc1 (centres undefined) | -30.99
COc1cccc(CNC(=O)CCc2c(C)c3cc4c(C)coc4cc3oc2=O)c1 | -22.91
CCc1ccc(CNC(=O)CCc2c(C)nn(-c3ccc(N4CCCC4)nn3)c2C)cc1 | -47.93
COc1ccc(CNC(=O)c2cc3ccccn3n2)c(OC)c1 | -18.83
COc1ccc(S(=O)(=O)Nc2cccc(-c3ccc(N4CCCCCC4)nn3)c2)cc1F | 5.71
COC(=O)c1cc2oc3ccccc3c2n1Cc1cccc(C)c1 | -7.67
Cc1ccccc1C(=O)Nc1cc2c(cc1N1CCOCC1)n(C)c(=O)n2C | -1.306
CCOc1ccccc1NC(=O)CCc1c(C)nn(-c2ccc(N3CCCCC3)nn2)c1C | -37.4

The first 5 entries again:

Cc1nn(-c2ccc(N3CCCC3)nn2)c(C)c1CCC(=O)NCc1ccccc1 read activity change -13.44%.
Cc1ccc(NC(=O)CSc2nnc(COc3ccc(Cl)cc3)o2)cc1 read activity change -11.68%.
CCOc1ccc(NC(=O)CC2C(=O)N(c3cccc(C)c3)C(=O)N2Cc2cccs2)cc1 (centres undefined) read activity change -26.45%.
Cc1ccccc1NC(=O)c1c(C)oc2ccc(O)c(CN3CCCC3)c12 read activity change -9.567%.
CCOC(=O)c1ccc(N2CCN(c3ccc(F)cc3)CC2)c(NC(=O)Nc2cccc(OC)c2)c1 read activity change -50.26%.